From publication PMC7015941 come the findings set out here.

Chains of the proteins cited; added tags and fusions are not shown.
UniProt O75832: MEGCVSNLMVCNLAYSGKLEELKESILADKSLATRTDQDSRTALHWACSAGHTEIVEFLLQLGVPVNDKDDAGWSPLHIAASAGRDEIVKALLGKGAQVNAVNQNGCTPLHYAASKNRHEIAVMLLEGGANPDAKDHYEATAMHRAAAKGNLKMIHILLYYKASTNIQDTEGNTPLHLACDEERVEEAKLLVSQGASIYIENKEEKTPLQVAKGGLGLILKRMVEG
UniProt P40763: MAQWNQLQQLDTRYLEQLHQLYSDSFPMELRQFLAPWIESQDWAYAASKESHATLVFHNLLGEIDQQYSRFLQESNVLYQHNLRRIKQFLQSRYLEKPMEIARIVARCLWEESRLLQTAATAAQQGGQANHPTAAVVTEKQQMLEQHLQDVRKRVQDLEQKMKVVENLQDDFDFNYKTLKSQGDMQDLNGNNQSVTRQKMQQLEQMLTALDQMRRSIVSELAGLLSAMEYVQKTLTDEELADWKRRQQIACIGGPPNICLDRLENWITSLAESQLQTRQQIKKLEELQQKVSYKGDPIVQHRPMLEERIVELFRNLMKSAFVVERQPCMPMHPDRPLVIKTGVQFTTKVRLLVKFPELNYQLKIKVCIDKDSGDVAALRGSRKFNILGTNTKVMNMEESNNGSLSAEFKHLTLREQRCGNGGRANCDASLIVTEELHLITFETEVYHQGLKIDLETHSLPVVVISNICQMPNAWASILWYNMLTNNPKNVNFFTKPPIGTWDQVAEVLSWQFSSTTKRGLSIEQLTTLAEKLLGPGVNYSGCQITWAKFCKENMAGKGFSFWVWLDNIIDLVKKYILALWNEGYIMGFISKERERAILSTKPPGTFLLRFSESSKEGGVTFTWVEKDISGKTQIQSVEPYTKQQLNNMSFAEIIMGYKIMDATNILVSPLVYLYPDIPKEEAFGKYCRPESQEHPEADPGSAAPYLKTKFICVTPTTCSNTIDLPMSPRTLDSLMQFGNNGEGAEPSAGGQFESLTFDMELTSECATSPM

These are yes or no findings as the source states them, for the method shown. Binding seen in cells or lysates may run through a third protein. Here binding means that the protein was enriched with, or labelled near, the bait; the list need not be complete.

The assay concerns the target gankyrin (human (endogenous in 786-O)) (UniProt O75832). In words: affinity purification with mass spectrometry; gankyrin-interacting proteins identified by nano-LC-ESI-MS/MS; performed as in ref. 20; cells and way of isolation not stated.

For STAT3 (from UniProt P40763 1-770), the binding result was “binds”.
